Reference: PMC2635097 (Molecular pharmacology, 2008)

By UniProt entry, the sequences of proteins in these tests, tags left out. Residues count along the entry.
UniProt Q00959, 23-1464: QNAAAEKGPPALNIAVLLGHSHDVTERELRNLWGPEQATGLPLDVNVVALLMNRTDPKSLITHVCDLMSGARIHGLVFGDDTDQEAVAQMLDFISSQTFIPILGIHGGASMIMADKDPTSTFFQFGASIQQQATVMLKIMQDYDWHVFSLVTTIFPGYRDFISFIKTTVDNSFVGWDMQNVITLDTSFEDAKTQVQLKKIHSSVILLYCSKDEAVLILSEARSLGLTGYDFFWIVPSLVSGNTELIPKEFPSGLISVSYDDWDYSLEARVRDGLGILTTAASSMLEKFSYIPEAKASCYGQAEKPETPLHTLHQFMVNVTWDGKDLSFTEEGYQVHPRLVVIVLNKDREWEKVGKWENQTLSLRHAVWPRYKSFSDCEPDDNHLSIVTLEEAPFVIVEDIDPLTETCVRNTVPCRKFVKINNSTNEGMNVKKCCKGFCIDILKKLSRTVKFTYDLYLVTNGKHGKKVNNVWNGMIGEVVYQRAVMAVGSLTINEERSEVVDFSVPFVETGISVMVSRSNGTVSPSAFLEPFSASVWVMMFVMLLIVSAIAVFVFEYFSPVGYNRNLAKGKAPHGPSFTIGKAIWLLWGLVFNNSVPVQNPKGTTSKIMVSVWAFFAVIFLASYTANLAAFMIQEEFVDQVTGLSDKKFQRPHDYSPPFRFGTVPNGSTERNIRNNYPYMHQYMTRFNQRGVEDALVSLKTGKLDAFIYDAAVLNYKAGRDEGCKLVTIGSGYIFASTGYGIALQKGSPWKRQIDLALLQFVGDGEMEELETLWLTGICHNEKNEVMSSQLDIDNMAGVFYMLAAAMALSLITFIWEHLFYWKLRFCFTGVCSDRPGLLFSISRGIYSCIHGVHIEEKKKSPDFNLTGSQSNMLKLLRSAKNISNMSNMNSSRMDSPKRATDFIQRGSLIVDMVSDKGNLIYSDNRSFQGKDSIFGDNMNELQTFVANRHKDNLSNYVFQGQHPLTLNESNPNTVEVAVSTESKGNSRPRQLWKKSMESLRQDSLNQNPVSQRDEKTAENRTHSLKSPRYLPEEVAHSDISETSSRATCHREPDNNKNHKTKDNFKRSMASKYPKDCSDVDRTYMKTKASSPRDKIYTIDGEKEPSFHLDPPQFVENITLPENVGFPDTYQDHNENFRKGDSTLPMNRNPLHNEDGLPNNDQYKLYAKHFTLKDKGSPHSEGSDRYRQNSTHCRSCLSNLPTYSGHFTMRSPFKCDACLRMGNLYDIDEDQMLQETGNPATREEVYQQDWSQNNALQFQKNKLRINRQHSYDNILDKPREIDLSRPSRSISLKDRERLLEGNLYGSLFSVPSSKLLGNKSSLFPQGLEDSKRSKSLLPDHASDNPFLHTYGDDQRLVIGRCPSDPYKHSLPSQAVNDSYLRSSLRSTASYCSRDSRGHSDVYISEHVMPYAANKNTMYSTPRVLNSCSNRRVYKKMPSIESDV

Target: glutamate site of NMDA receptors (Rattus norvegicus, UniProt Q00959)
Test: NMDA receptor radioligand binding assay

SMILES: Nc1nc2ccc(OC(F)(F)F)cc2s1 [Riluzole, 2-amino-6-[trifluoromethoxy]benzothiazole, reference compound]
- effect in NMDA receptor binding assay at 100 μM: no effect
